The list is a part of this screen's results and no random one: it gathers tests that were run many times, whatever their T/C, doses with no T/C, and many T/C values between a quarter and a half above the control. Further doses and runs are listed elsewhere. T/C gives the treated animals as a percentage of the vehicle group. Some entries give survivors of the animals treated and no T/C: the source files T/C as zero there, which appears to mark a toxic dose or a test without result, not a measured value. Some doses without a T/C left all or most animals alive at the check, yet need not have been tolerated: the source hardly ever lists a survival T/C far under the control, and the zero likely stands for such cases as well. Counts of survivors are from the toxicity check (mostly the fifth day) where no day follows; animals may have died later. Schedules are NCI's codes, read here as Q, the interval in days (D) or hours (H), X, the number of doses. Some entries hold several experiments; their values stand side by side, smallest first. For survival time, the PubChem record calls one and a half times the control and up active, and a quarter to a half above the control has no call in these data; cut-offs in other NCI protocols can differ. Numbered stars: 1 amine (or outer) side, 2 acyl side, 3 side chain; on linkers, the order of the positions; unused ones are H or OH. Bridge positions count the residues as written; N and C are the ends. Square brackets hold non-standard residues; d marks the D form. Peptide text beside a SMILES is read from it. I, II: the chains in the order shown. Actinocin(1to9) = Cc1c2oc3c(C)ccc(C(=O)[*:2])c3nc-2c(C(=O)[*:1])c(N)c1=O; NMeV = CN[CH](C(=O)O)C(C)C; Sar = CNCC(=O)O
Tested on: BDF1 mice, B16 melanoma ip, median survival T/C
Assay: NCI In Vivo Anticancer Drug Screen. Data for tumor model B16 Melanoma (intraperitoneal) in B6D2F1 (BDF1) mice
Conditions: T/C endpoint: median survival time, higher T/C = longer survival
Procedure, shortened: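 Mice with transplantable tumors; drug vs vehicle groups; endpoint survival or tumor size; value = T/C.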

[1] = dose: 50.0 mg/kg/injection, schedule: Q01DX009 (ip), vehicle: saline
[2] = dose: 100.0 mg/kg/injection, schedule: Q01DX009 (ip), vehicle: saline with Tween-80
[3] = dose: 200.0 mg/kg/injection, schedule: Q01DX009 (ip), vehicle: Klucel (hydroxypropylcellulose) (HPC)
[4] = dose: 1.0 mg/kg/injection, schedule: Q01DX009 (ip), vehicle: saline
[5] = dose: 50.0 mg/kg/injection, schedule: Q01DX009 (ip), vehicle: saline with Tween-80
[6] = dose: 100.0 mg/kg/injection, schedule: Q01DX009 (ip), vehicle: Klucel (hydroxypropylcellulose) (HPC)
[7] = dose: 400.0 mg/kg/injection, schedule: Q01DX009 (ip), vehicle: saline with Tween-80
[8] = dose: 200.0 mg/kg/injection, schedule: Q01DX009 (ip), vehicle: saline
[9] = dose: 400.0 mg/kg/injection, schedule: Q01DX009 (ip), vehicle: saline
[10] = dose: 3.12 mg/kg/injection, schedule: Q01DX009 (ip), vehicle: saline
[11] = dose: 25.0 mg/kg/injection, schedule: Q01DX009 (ip), vehicle: saline
[12] = dose: 12.5 mg/kg/injection, schedule: Q01DX009 (ip), vehicle: saline
[13] = dose: 50.0 mg/kg/injection, schedule: Q01DX009 (ip), vehicle: Klucel (hydroxypropylcellulose) (HPC)
[14] = dose: 12.5 mg/kg/injection, schedule: Q01DX009 (ip), vehicle: saline with Tween-80
[15] = dose: 25.0 mg/kg/injection, schedule: Q01DX009 (ip), vehicle: saline with Tween-80

C[Si](C)(O[Si](C)(C)c1ccccc1)c1ccccc1
T/C [1]: 129 % of control

CSCCC(NC(=O)c1ccccc1)C(=O)O (stereo not given)
survivor count [2]: 10 of 10

COc1cccc2c1C(=O)c1c(O)c3c(c(O)c1C2=O)C[C@@](O)(/C(C)=N/NC(=O)c1ccccc1)C[C@@H]3OC1CC(N)C(O)C(C)O1 (stereo not given in full)
T/C (dose: 0.37 mg/kg/injection, schedule: Q01DX009 (ip), vehicle: saline): 129 % of control | T/C (dose: 1.0 mg/kg/injection, schedule: Q01DX009 (ip), vehicle: water): 144 % of control | T/C (dose: 3.0 mg/kg/injection, schedule: Q04DX003 (ip), vehicle: saline): 141 % of control | survivor count (dose: 12.0 mg/kg/injection, schedule: Q01DX009 (ip), vehicle: saline): 8 of 9 and 10 of 10 | T/C (dose: 24.0 mg/kg/injection, schedule: Q04DX003 (ip), vehicle: saline): 127 % of control | survivor count (dose: 32.0 mg/kg/injection, schedule: Q01DX001 (ip), vehicle: water): 7 of 10 and 10 of 10 | survivor count (dose: 64.0 mg/kg/injection, schedule: Q01DX001 (ip), vehicle: water): 4 of 10, 5 of 10, 10 of 10 | survivor count (dose: 128.0 mg/kg/injection, schedule: Q01DX001 (ip), vehicle: water): 0 of 10 and 3 of 10

C=C1C(=O)OC2CC3(C)CC(O)C(O)C(=C)C3CC12 (stereo not given)
survivor count [3]: 7 of 10

O[C@H](CN1CC1)[C@@H](O)CN1CC1
survivor count [4]: 10 of 10 | survivor count (dose: 2.0 mg/kg/injection, schedule: Q01DX009 (ip), vehicle: saline): 10 of 10

CCC(C)C1NC(=O)C(NC(=O)c2c3nc4c(C(=O)NC5C(=O)NC(C(C)C)C(=O)N6CCCC6C(=O)N(C)CC(=O)N(C)C(C(C)C)C(=O)OC5C)ccc(C)c4oc-3c(C)c(=O)c2N)C(C)OC(=O)C(C(C)C)N(C)C(=O)CN(C)C(=O)C2CCCN2C1=O (stereo not given) (I: TIP[Sar][NMeV] / II: TVP[Sar][NMeV]; ester I:1-I:C, II:1-II:C; linker I:N-II:N via Actinocin(1to9); configuration not given here)
T/C (dose: 0.4 mg/kg/injection, schedule: Q01DX001 (ip), vehicle: water): 127 % of control | survivor count (dose: 0.8 mg/kg/injection, schedule: Q01DX001 (ip), vehicle: water): 7 of 10 | survivor count (dose: 1.6 mg/kg/injection, schedule: Q01DX001 (ip), vehicle: water): 0 of 10 | T/C (dose: 50.0 micrograms/kg/injection, schedule: Q01DX009 (ip), vehicle: water): 136 % of control | survivor count (dose: 100.0 micrograms/kg/injection, schedule: Q01DX009 (ip), vehicle: water): 10 of 10 | T/C (dose: 150.0 micrograms/kg/injection, schedule: Q04DX003 (ip), vehicle: water): 136 % of control | T/C (dose: 300.0 micrograms/kg/injection, schedule: Q04DX003 (ip), vehicle: water): 144 % of control | survivor count (dose: 600.0 micrograms/kg/injection, schedule: Q04DX003 (ip), vehicle: water): 9 of 10

Cc1ccc(C)c(CCN)c1
survivor count [5]: 10 of 10

CCOc1ccc(NC(=O)Nc2ccccc2OC)cc1
survivor count [6]: 10 of 10 | survivor count [3]: 10 of 10 | survivor count (dose: 400.0 mg/kg/injection, schedule: Q01DX009 (ip), vehicle: Klucel (hydroxypropylcellulose) (HPC)): 10 of 10

CC(=O)OC1OC(=O)C(C)(C(C)=O)C1C (stereo not given)
survivor count (dose: 20.0 mg/kg/injection, schedule: Q01DX009 (ip), vehicle: distilled water + alcohol): 10 of 10 | survivor count (dose: 40.0 mg/kg/injection, schedule: Q01DX009 (ip), vehicle: distilled water + alcohol): 5 of 10

CC(C)c1cccc(C(C)C)c1OC(=O)Nc1ccccc1Cl
survivor count (dose: 400.0 mg/kg/injection, schedule: Q04DX003 (ip), vehicle: Klucel (hydroxypropylcellulose) (HPC)): 6 of 10

CC(=O)C1=C(O)C2C3c4c[nH]c5cccc(c45)CC3C(C)(C)N2C1=O (stereo not given)
T/C [4]: 126 % of control

CC1C2CC3C(OC(=O)C13)C2I (stereo not given)
survivor count [7]: 4 of 10

COc1cc2c(c(OC)c1OC)-c1ccc(SC)c(=O)cc1[C@@H](NC1OC(CO)C(O)C(O)C1O)CC2 (stereo not given in full)
survivor count [1]: 6 of 10 | survivor count [8]: 2 of 10 | survivor count [9]: 0 of 10

CC(CC1c2ccccc2CCc2ccccc21)CN(C)C (stereo not given)
T/C [10]: 138 % of control | T/C [11]: 136 % of control | T/C [1]: 125 % of control | survivor count (dose: 100.0 mg/kg/injection, schedule: Q01DX009 (ip), vehicle: saline): 6 of 10 | survivor count [8]: 0 of 10 | survivor count [9]: 0 of 10

NC(N)=Nc1ccc(C(=O)Oc2ccc([N+](=O)[O-])cc2CN2CCCCC2)cc1
survivor count [12]: 0 of 10 | survivor count [11]: 0 of 10

CC(=O)OCCCC/C(=C/c1cc2ccccc2c2ccccc12)[N+](=O)[O-]
survivor count (dose: 25.0 mg/kg/injection, schedule: Q01DX009 (ip), vehicle: Klucel (hydroxypropylcellulose) (HPC)): 10 of 10 | survivor count [13]: 10 of 10 | survivor count [6]: 10 of 10 | survivor count [3]: 4 of 10

Cc1c2cc[n+](C)c(C)c2cc2c1[nH]c1ccccc12
survivor count (dose: 80.0 mg/kg/injection, schedule: Q04DX003 (ip), vehicle: water): 9 of 10 | survivor count (dose: 160.0 mg/kg/injection, schedule: Q04DX003 (ip), vehicle: water): 2 of 10

N/C=N/O
survivor count [9]: 7 of 10

N#CCc1ccccc1C(=O)O
survivor count (dose: 50.0 mg/kg/injection, schedule: Q04DX003 (ip), vehicle: gum acacia): 10 of 10 | survivor count (dose: 200.0 mg/kg/injection, schedule: Q04DX003 (ip), vehicle: gum acacia): 10 of 10 | survivor count (dose: 400.0 mg/kg/injection, schedule: Q04DX003 (ip), vehicle: gum acacia): 10 of 10

CC(C)C(=O)OCC1OC(n2cnc3c(=S)nc(N)[nH]c32)C(OC(=O)C(C)C)C1OC(=O)C(C)C (stereo not given)
survivor count [14]: 6 of 6 | survivor count [15]: 6 of 6 | survivor count [5]: 5 of 6 | survivor count [2]: 6 of 6 | survivor count (dose: 200.0 mg/kg/injection, schedule: Q01DX009 (ip), vehicle: saline with Tween-80): 6 of 6 | survivor count [7]: 4 of 6

COc1cc(/C=C/[N+](=O)[O-])c([N+](=O)[O-])cc1OC
survivor count [13]: 0 of 10 | survivor count [6]: 0 of 10 | survivor count [3]: 0 of 10

CC(=O)OC1CCC2(C)C(CCC3C2C(=O)C(OC(C)=O)C2(C)C3CC3OC4(CCC(C)CO4)C(C)C32)C1 (stereo not given)
survivor count [14]: 10 of 10 | survivor count [15]: 10 of 10 | survivor count [5]: 10 of 10 | survivor count [2]: 10 of 10

O=NN(CCBr)C(=O)NCCBr
T/C (dose: 100.0 mg/kg/injection, schedule: Q01DX009 (ip), vehicle: gum acacia): 127 % of control | T/C (dose: 150.0 mg/kg/injection, schedule: Q01DX009 (ip), vehicle: gum acacia): 135 % of control | survivor count (dose: 200.0 mg/kg/injection, schedule: Q01DX009 (ip), vehicle: gum acacia): 10 of 10

O=[N+]([O-])c1ccc(O)c(N=Cc2ccc(C=Nc3cc([N+](=O)[O-])ccc3O)cc2)c1
survivor count (dose: 300.0 mg/kg/injection, schedule: Q01DX009 (ip), vehicle: Klucel (hydroxypropylcellulose) (HPC)): 10 of 10

CC[CH2][Pb]([CH2]CC)([CH2]CC)[O]C(=O)c1ccccc1
survivor count (dose: 6.25 mg/kg/injection, schedule: Q01DX009 (ip), vehicle: Klucel (hydroxypropylcellulose) (HPC)): 10 of 10

OCCN1CCN(CCCN2c3ccccc3Sc3ccc(C(F)(F)F)cc32)CC1
survivor count (dose: 1.56 mg/kg/injection, schedule: Q01DX009 (ip), vehicle: saline): 9 of 10 | survivor count [10]: 10 of 10 | survivor count (dose: 6.25 mg/kg/injection, schedule: Q01DX009 (ip), vehicle: saline): 9 of 10 | survivor count [12]: 5 of 10 | survivor count [11]: 4 of 10

N=C(N)SCc1cccc([N+](=O)[O-])c1
survivor count [6]: 7 of 10

Source: PubChem BioAssay AID192 (DTP/NCI, 2004)
